Measured values reported in patent US7705188B2 (Arizona Board of Regents, a body corporate of the State of …, priority 2002, dated 2010).
Some results were stated once for a whole list of compounds, not compound by compound.

Tested on: P-388 and human tumor cell lines
Experiment: Cytotoxicity, summary over P-388 and human tumor cell lines
Assay type: cell-based
Conditions: relative to resveratrol (1)

| Structure (SMILES) | Fold more active against tumor cell lines than resveratrol (1) |
| --- | --- |
| COc1ccc(C=Cc2cc(OC)cc(OC)c2)cc1 [Compound 4a, 3,4′,5-trimethoxystilbene] | 10-100 fold |
| COc1ccc(C=Cc2cc(OC)cc(OC)c2)cc1 [Compound 4b, 3,4′,5-trimethoxystilbene] | 10-100 fold |
